Reference: patent publication US10653822B2, “Drug delivery devices and methods of making and using same” (The Administrators of the Tulane Educational Fund, priority 2012, dated 2020)
At least one compound was matched to its structure with a doubt left.

What was measured:
[1] = Release of FF from PLGA wafer into cell culture medium (HPLC); assay type: physicochemical; settings: PLGA/FF wafer continuously present with LN-229 cells for 12 days
[2] = test system: stroke; settings: microparticles injected intracranially to rats prior to stroke induction; cited from earlier work

CC(C)(Oc1ccc(C(=O)c2ccc(Cl)cc2)cc1)C(=O)O [FA, fenofibric acid]
cumulative concentration in culture media at day 12 of the clonogenic assay [1]: very low levels

CC(C)OC(=O)C(C)(C)Oc1ccc(C(=O)c2ccc(Cl)cc2)cc1 [FF, fenofibrate]
cumulative concentration in culture media at day 12 of the clonogenic assay [1]: ~30 µM | cortical infarct volume [2]: significantly reduced cortical infarct volume
